The list shows only some results of the screen, not a fair sample: it gathers tests that were run many times, whatever their T/C, doses with no T/C, and many T/C values between a quarter and a half above the control. Other doses and runs of a compound stand elsewhere. T/C gives the treated animals as a percentage of the vehicle group. Some doses have a count of surviving animals in place of a T/C: the source holds a T/C of zero for them, seemingly a mark for toxic or unscored doses. Some survivor counts are full or nearly so, which does not show that the dose was tolerated: survival well below the control is almost never listed, so the zero probably covers shortened survival too. Survivors were counted at the toxicity check, usually on the fifth day, unless a day is given; later deaths do not show. Schedule codes are those of the source, taken here to give the interval after Q, in days (D) or hours (H), and the number of doses after X. Some doses were run more than once; the results are listed from low to high. For survival time, the PubChem record calls one and a half times the control and up active, and a quarter to a half above the control has no call in these data; cut-offs in other NCI protocols can differ. Some T/C values carry the count of animals alive at the toxicity check (mostly the fifth day); where none is given, no animal had died by that day.
Tested on: P388 leukemia ip, CD2F1 mice, survival T/C
Experiment: NCI In Vivo Anticancer Drug Screen. Data for tumor model P388 Leukemia (intraperitoneal) in CD2F1 (CDF1) mice
Settings: T/C endpoint: median survival time, higher T/C = longer survival
[1] = dose: 50.0 mg/kg/injection, schedule: Q01DX009 (ip), vehicle: Klucel (hydroxypropylcellulose) (HPC)
[2] = dose: 100.0 mg/kg/injection, schedule: Q01DX009 (ip), vehicle: Klucel (hydroxypropylcellulose) (HPC)
[3] = dose: 200.0 mg/kg/injection, schedule: Q01DX009 (ip), vehicle: Klucel (hydroxypropylcellulose) (HPC)
[4] = dose: 50.0 mg/kg/injection, schedule: Q01DX009 (ip), vehicle: suspension in saline
[5] = dose: 100.0 mg/kg/injection, schedule: Q01DX009 (ip), vehicle: suspension in saline
[6] = dose: 240.0 mg/kg/injection, schedule: Q01DX005 (ip), vehicle: saline with Tween-80
[7] = dose: 200.0 mg/kg/injection, schedule: Q01DX005 (ip), vehicle: saline
[8] = dose: 100.0 mg/kg/injection, schedule: Q01DX009 (ip), vehicle: saline
[9] = dose: 100.0 mg/kg/injection, schedule: Q01DX005 (ip), vehicle: saline with Tween-80
[10] = dose: 200.0 mg/kg/injection, schedule: Q01DX005 (ip), vehicle: saline with Tween-80

## O=c1n(CC2CC3(Cl)C(Cl)=C(Cl)C2(Cl)C3(Cl)Cl)c(=O)n(CC2CC3(Cl)C(Cl)=C(Cl)C2(Cl)C3(Cl)Cl)c(=O)n1CC1CC2(Cl)C(Cl)=C(Cl)C1(Cl)C2(Cl)Cl (stereo not drawn)
dose: 100.0 mg/kg/injection, schedule: Q01DX009 (ip), vehicle: saline with Tween-80
  survivor count: 6 of 6

## O=C1CCSC(=S)N1c1ccc(Cl)c(C(F)(F)F)c1
dose: 200.0 mg/kg/injection, schedule: Q01DX009 (ip), vehicle: saline
  T/C: 128 % of control

## COc1c(CNC(=O)CCl)cc2[nH]c(C)cc2c1CNC(=O)CCl
[1]
  T/C: 137 and 141 % of control
[2]
  T/C: 141 % of control
[3]
  T/C: 145 % of control

## Cc1cc[n+](CCC(N)=O)cc1
dose: 400.0 mg/kg/injection, schedule: Q04DX003 (ip), vehicle: saline
  survivor count: 6 of 6

## O=C(O)C/[N+]([O-])=N\O
dose: 800.0 mg/kg/injection, schedule: Q04DX003 (ip), vehicle: saline
  survivor count: 1 of 6

## CC(C)(C)C(=O)C1C(=O)c2ccccc2C1=O
dose: 6.25 mg/kg/injection, schedule: Q04DX003 (ip), vehicle: Klucel (hydroxypropylcellulose) (HPC)
  survivor count: 6 of 6
dose: 12.5 mg/kg/injection, schedule: Q04DX003 (ip), vehicle: Klucel (hydroxypropylcellulose) (HPC)
  survivor count: 6 of 6
dose: 25.0 mg/kg/injection, schedule: Q04DX003 (ip), vehicle: Klucel (hydroxypropylcellulose) (HPC)
  survivor count: 6 of 6
dose: 50.0 mg/kg/injection, schedule: Q04DX003 (ip), vehicle: Klucel (hydroxypropylcellulose) (HPC)
  survivor count: 6 of 6
dose: 100.0 mg/kg/injection, schedule: Q04DX003 (ip), vehicle: Klucel (hydroxypropylcellulose) (HPC)
  survivor count: 0 of 6
dose: 200.0 mg/kg/injection, schedule: Q04DX003 (ip), vehicle: Klucel (hydroxypropylcellulose) (HPC)
  survivor count: 0 of 6
dose: 400.0 mg/kg/injection, schedule: Q04DX003 (ip), vehicle: Klucel (hydroxypropylcellulose) (HPC)
  survivor count: 0 of 6

## Cc1ccc(S(=O)(=O)c2ccc(Sc3cccc[n+]3[O-])c3nonc23)cc1
[4]
  T/C: 130 % of control
[5]
  T/C: 134 % of control [5 of 6 alive]

## CNNC(=O)OC
dose: 200.0 mg/kg/injection, schedule: Q01DX002 (ip), vehicle: saline
  survivor count: 6 of 6

## CCOC(=O)C1=C(c2ccccc2)N=c2ccccc2=S1C (stereo not drawn)
dose: 120.0 mg/kg/injection, schedule: Q01DX005 (ip), vehicle: saline with Tween-80
  survivor count: 2 of 6
[6]
  survivor count: 0 of 6

## CN(C)c1ccc(/C=C/c2c(F)cnc3ccccc23)cc1
[1]
  survivor count: 6 of 6
[2]
  survivor count: 6 of 6
[3]
  survivor count: 6 of 6

## O=C(CBr)Nc1c(Cl)cc(Br)cc1Br
dose: 50.0 mg/kg/injection, schedule: Q01DX009 (ip), vehicle: saline with Tween-80
  survivor count: 4 of 6

## Nc1nc(SN=Nc2ccc(S(N)(=O)=O)cc2)c2[nH]cnc2n1
dose: 30.0 mg/kg/injection, schedule: Q01DX009 (ip), vehicle: saline
  survivor count: 6 of 6

## CCCCCCCCN1CCOCCOCCN(CCCCCCCC)c2nc(Cl)nc(n2)NCCOCCOCCNc2nc(Cl)nc1n2
[6]
  survivor count: 6 of 6

## O=C(NC(Cc1ccc(Br)cc1)C(=O)O)c1cccc(Cl)c1 (stereo not drawn)
[7]
  survivor count: 1 of 6

## CCOc1ccc(N=C([Se])CC)cc1
[1]
  survivor count: 0 of 6
[2]
  survivor count: 0 of 6
[3]
  survivor count: 0 of 6

## Cc1cn(C2CC3[O][Sn]([c]4ccccc4)([c]4ccccc4)[O]CC3O2)c(=O)[nH]c1=O (stereo not drawn)
dose: 50.0 mg/kg/injection, schedule: Q01DX009 (ip), vehicle: saline
  T/C: 130 % of control
[4]
  T/C: 131 % of control
[8]
  survivor count: 3 of 6
[5]
  T/C: 127 % of control [5 of 6 alive]
dose: 200.0 mg/kg/injection, schedule: Q01DX009 (ip), vehicle: suspension in saline
  survivor count: 3 of 6
dose: 400.0 mg/kg/injection, schedule: Q01DX009 (ip), vehicle: suspension in saline
  survivor count: 0 of 6

## C=Cc1ccc2cccc(O)c2n1
dose: 200.0 mg/kg/injection, schedule: Q01DX001 (ip), vehicle: saline with Tween-80
  survivor count: 3 of 6
dose: 400.0 mg/kg/injection, schedule: Q01DX001 (ip), vehicle: saline with Tween-80
  survivor count: 0 of 6

## CCN(CC)CCC(CNc1c2ccc(Cl)cc2nc2ccc(OC)cc12)c1ccccc1 (stereo not drawn)
[9]
  survivor count: 0 of 5
[10]
  survivor count: 0 of 5

## COc1cc2c(cc1OC)CN1CCCC1C2 (stereo not drawn)
dose: 50.0 mg/kg/injection, schedule: Q01DX005 (ip), vehicle: other
  survivor count: 2 of 6
dose: 100.0 mg/kg/injection, schedule: Q01DX005 (ip), vehicle: other
  survivor count: 0 of 6
dose: 200.0 mg/kg/injection, schedule: Q01DX005 (ip), vehicle: other
  survivor count: 0 of 6

## CCCCCCCCCCCCCCCCOP(=O)([O-])OCC[N+](C)(C)C
dose: 120.0 mg/kg/injection, schedule: Q01DX005 (ip), vehicle: saline
  survivor count: 0 of 6
dose: 240.0 mg/kg/injection, schedule: Q01DX005 (ip), vehicle: saline
  survivor count: 0 of 6

## O=c1[nH]c(=O)n(C2CC(O)C(CO)O2)cc1S (stereo not drawn)
[8]
  T/C: 136, 137, 138 % of control

## O=C1C2CC(Cl)C(SSC3CC4C(=O)N(SC(Cl)(Cl)C(Cl)Cl)C(=O)C4CC3Cl)CC2C(=O)N1SC(Cl)(Cl)C(Cl)Cl (stereo not drawn)
dose: 25.0 mg/kg/injection, schedule: Q01DX005 (ip), vehicle: saline with Tween-80
  survivor count: 2 of 5
dose: 50.0 mg/kg/injection, schedule: Q01DX005 (ip), vehicle: saline with Tween-80
  survivor count: 0 of 5
[9]
  survivor count: 0 of 5
[10]
  survivor count: 0 of 5

## CCC1(CC2CCCN(C)C2)c2ccccc2Sc2ccccc21 (stereo not drawn)
dose: 100.0 mg/kg/injection, schedule: Q01DX005 (ip), vehicle: saline
  survivor count: 0 of 6
[7]
  survivor count: 0 of 6

## O=CNc1cccc(NC=O)c1
dose: 400.0 mg/kg/injection, schedule: Q01DX009 (ip), vehicle: distilled water + Tween-80
  survivor count: 0 of 6

## O=C1OC2C3COC(=O)c4cc(O)c(O)c(O)c4-c4c(cc(O)c(O)c4O)C(=O)OC2C(OC(=O)c2cc(O)c(O)c4c2[C@@H]2C1=CC(=O)[C@](O)(O4)C2(O)O)C(OC(=O)c1cc(O)c(O)c(O)c1)O3 (stereo partly drawn)
dose: 50.0 mg/kg/injection, schedule: Q01DX005 (ip), vehicle: DMSO
  survivor count: 5 of 6
dose: 100.0 mg/kg/injection, schedule: Q01DX005 (ip), vehicle: DMSO
  survivor count: 0 of 6

## COc1c(Cl)c2c(c(OC)c1OC)-c1ccc(OC)c(=O)cc1C(NC(C)=O)CC2 (stereo not drawn)
dose: 3.12 mg/kg/injection, schedule: Q01DX009 (ip), vehicle: Klucel (hydroxypropylcellulose) (HPC)
  survivor count: 5 of 5
dose: 6.25 mg/kg/injection, schedule: Q01DX009 (ip), vehicle: Klucel (hydroxypropylcellulose) (HPC)
  survivor count: 4 of 5 and 5 of 5
dose: 12.5 mg/kg/injection, schedule: Q01DX009 (ip), vehicle: Klucel (hydroxypropylcellulose) (HPC)
  survivor count: 0 of 5
dose: 25.0 mg/kg/injection, schedule: Q01DX009 (ip), vehicle: Klucel (hydroxypropylcellulose) (HPC)
  survivor count: 0 of 5

## COC(=O)NC1C(C)OC(OC2C/C=C(/C)C3C=CC4C(OC5CC(OC6CCC(OC7CC(O)C(OC8CCC(O)C(C)O8)C(C)O7)C(C)O6)C(OC(C)=O)C(C)O5)C(C)CC(C)C4C3(C)/C(O)=C3/C(=O)OC4(CC(C=O)=CC(O)C4/C=C\2C)C3=O)CC1(C)[N+](=O)[O-] (stereo not drawn)
dose: 5.0 mg/kg/injection, schedule: Q01DX005 (ip), vehicle: water
  T/C: 125 % of control
dose: 14.93 mg/kg/injection, schedule: Q01DX005 (ip), vehicle: water
  survivor count: 6 of 10
dose: 20.0 mg/kg/injection, schedule: Q01DX005 (ip), vehicle: water
  survivor count: 3 of 6
dose: 22.28 mg/kg/injection, schedule: Q01DX005 (ip), vehicle: water
  survivor count: 3 of 10
dose: 40.0 mg/kg/injection, schedule: Q01DX005 (ip), vehicle: water
  survivor count: 0 of 6

— PubChem BioAssay AID330 (DTP/NCI, 2004)
